# Results published in article PMC6983240.
# By UniProt entry, the sequences of proteins in these tests, tags left out. Where a name states a change or a piece, a line headed by the entry shows the natural chain unless it says otherwise.
# UniProt A6IDY9: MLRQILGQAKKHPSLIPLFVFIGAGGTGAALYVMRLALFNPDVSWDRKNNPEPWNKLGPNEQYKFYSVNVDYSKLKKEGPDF
# Results are given in words; binding and its absence hold for the method and conditions named. In cells and extracts the contact can be indirect. Binding calls can cover weak binding; strength is not graded here. For some assays here: Tags and fused reporters may be left off the sequences shown.
# Experiments:
# [1] = biological target: T1, DJ-1 (rat (endogenous in H9c2)) (UniProt O88767); experiment: co-IP; H9c2 mitochondrial lysates (H/R, HPC + H/R, pFlag-DJ-1 + H/R, each with or without LV-shGrp75 knock-down); IP with anti-DJ-1 antibody or IgG, blot with anti-NDUFA4 or anti-ND1
# T1 sequence: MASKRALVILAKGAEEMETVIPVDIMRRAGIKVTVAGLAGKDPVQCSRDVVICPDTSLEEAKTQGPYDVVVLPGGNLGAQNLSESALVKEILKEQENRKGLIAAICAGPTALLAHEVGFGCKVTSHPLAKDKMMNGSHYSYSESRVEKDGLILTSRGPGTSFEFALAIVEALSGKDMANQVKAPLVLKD
# [2] = biological target: T2, Flag-DJ-1 (from plasmid pFlag-DJ-1) (UniProt O88767); experiment: as above
# T2 sequence: T1 sequence
substance,measurement,setting,value
NDUFA4 subunit of mitochondrial complex I (from UniProt A6IDY9),binding,[1],binds
same,binding,[2],binds
